# ± gives the standard deviation of the averaged measurements. Only a part is listed here, and it is no random draw.
# Sequences of proteins named here, by UniProt entry; tags and fusion partners are left off. A change or cut given only in a name is not applied to a line headed by its entry.
# UniProt Q9Y6X9: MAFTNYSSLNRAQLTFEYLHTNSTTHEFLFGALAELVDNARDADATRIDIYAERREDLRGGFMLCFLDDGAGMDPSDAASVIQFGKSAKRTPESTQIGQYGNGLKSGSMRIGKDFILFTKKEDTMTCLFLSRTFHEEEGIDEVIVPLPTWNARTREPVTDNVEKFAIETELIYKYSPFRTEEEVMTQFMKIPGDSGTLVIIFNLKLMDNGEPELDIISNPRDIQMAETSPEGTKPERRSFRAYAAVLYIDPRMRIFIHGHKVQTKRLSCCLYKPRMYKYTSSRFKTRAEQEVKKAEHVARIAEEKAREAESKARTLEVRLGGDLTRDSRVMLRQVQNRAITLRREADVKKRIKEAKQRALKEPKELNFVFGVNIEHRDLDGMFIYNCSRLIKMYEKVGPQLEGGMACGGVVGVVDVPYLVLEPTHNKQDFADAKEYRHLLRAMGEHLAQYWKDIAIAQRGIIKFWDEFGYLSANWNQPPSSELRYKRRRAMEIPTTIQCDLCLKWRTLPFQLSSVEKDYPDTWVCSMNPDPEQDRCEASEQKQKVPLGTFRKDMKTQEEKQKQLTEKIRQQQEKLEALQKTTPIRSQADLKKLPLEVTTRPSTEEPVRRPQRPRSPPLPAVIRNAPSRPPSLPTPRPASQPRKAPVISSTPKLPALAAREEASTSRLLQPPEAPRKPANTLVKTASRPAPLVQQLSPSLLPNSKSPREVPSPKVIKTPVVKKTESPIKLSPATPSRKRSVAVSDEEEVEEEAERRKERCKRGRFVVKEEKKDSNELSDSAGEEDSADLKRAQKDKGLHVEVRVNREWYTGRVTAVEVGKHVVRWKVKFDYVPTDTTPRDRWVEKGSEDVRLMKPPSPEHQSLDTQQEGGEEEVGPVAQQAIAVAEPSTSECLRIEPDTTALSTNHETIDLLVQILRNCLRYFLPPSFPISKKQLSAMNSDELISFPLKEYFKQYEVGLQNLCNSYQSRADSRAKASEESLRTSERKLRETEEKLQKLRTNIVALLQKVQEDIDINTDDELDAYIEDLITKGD
# UniProt Q9Y5A9: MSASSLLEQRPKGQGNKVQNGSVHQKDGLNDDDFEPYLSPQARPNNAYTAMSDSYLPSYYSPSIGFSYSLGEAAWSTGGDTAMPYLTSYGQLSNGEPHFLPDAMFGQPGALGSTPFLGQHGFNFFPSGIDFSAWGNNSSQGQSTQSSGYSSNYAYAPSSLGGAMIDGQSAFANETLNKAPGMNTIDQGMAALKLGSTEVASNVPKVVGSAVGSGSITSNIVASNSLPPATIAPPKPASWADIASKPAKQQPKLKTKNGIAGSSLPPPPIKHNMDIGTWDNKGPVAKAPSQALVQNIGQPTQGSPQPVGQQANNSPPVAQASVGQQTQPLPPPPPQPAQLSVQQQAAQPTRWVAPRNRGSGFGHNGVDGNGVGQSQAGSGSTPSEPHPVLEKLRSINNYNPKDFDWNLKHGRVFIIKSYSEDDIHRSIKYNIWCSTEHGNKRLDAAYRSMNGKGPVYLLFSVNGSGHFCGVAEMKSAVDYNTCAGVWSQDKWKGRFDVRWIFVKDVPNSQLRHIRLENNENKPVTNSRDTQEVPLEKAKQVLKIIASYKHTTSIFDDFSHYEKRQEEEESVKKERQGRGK
# UniProt Q9Y6X5: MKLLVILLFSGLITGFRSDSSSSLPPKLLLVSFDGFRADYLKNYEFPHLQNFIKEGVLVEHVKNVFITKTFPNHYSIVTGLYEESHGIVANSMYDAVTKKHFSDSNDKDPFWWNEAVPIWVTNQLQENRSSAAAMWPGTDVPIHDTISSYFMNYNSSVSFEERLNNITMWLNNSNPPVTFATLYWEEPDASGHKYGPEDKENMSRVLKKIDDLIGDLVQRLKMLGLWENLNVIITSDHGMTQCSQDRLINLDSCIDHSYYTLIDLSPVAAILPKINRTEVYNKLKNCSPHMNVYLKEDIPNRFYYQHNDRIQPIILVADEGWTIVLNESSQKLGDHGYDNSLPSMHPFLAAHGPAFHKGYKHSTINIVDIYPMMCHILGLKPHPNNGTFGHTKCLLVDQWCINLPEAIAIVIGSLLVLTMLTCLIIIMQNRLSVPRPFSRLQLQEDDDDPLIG
# UniProt Q9Y6G9, whole entry: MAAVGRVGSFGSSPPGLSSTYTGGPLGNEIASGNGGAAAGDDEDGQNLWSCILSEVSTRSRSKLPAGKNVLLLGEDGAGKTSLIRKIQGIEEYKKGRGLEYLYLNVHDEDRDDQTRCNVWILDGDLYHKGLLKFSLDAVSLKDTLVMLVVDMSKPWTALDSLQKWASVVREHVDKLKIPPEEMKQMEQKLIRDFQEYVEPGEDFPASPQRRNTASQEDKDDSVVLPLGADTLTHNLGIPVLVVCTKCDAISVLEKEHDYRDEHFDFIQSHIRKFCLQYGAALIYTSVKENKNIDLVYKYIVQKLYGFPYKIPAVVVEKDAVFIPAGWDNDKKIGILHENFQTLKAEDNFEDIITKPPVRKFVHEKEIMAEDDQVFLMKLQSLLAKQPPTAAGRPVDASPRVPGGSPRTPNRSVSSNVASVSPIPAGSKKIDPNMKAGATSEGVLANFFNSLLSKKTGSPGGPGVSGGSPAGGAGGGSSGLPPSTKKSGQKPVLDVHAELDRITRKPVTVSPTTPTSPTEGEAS
# UniProt Q9Y4E8: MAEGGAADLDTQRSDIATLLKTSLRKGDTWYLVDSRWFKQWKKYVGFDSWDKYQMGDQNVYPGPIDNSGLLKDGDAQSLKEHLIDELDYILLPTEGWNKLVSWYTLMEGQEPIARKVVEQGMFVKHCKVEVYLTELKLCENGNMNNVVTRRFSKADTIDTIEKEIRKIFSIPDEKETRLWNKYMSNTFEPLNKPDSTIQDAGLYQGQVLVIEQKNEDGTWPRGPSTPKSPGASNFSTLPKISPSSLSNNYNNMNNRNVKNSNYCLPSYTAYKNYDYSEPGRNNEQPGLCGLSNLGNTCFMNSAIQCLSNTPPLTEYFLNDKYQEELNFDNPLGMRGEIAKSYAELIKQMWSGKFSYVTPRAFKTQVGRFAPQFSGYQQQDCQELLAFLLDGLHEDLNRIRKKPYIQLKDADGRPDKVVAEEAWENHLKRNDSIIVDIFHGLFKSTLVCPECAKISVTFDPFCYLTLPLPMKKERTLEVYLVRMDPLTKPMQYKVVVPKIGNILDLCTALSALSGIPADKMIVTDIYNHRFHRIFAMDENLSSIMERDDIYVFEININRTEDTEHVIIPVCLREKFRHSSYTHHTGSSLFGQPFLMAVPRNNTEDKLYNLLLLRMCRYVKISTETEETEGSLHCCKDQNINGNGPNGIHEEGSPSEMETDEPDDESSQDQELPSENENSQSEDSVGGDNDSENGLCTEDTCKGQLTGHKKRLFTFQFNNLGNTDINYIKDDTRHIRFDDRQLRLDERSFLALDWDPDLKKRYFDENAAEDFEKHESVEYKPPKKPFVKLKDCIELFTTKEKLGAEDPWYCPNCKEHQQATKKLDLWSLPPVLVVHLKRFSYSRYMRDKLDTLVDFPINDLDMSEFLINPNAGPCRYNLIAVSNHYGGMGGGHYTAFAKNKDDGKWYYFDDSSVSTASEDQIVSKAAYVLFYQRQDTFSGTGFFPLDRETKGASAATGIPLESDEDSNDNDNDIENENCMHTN
# UniProt Q9Y697: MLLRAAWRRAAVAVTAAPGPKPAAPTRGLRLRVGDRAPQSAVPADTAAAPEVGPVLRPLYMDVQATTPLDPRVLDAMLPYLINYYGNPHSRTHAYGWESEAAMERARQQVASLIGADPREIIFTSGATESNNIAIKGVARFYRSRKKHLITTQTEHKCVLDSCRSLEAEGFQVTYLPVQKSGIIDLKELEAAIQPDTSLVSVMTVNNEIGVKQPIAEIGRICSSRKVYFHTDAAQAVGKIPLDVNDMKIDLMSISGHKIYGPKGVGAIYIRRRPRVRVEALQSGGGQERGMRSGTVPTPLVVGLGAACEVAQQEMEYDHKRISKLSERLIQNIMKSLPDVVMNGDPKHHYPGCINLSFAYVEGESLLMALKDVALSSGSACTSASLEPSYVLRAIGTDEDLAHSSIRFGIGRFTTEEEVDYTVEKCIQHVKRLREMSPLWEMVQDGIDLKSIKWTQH
# UniProt Q9Y6K5: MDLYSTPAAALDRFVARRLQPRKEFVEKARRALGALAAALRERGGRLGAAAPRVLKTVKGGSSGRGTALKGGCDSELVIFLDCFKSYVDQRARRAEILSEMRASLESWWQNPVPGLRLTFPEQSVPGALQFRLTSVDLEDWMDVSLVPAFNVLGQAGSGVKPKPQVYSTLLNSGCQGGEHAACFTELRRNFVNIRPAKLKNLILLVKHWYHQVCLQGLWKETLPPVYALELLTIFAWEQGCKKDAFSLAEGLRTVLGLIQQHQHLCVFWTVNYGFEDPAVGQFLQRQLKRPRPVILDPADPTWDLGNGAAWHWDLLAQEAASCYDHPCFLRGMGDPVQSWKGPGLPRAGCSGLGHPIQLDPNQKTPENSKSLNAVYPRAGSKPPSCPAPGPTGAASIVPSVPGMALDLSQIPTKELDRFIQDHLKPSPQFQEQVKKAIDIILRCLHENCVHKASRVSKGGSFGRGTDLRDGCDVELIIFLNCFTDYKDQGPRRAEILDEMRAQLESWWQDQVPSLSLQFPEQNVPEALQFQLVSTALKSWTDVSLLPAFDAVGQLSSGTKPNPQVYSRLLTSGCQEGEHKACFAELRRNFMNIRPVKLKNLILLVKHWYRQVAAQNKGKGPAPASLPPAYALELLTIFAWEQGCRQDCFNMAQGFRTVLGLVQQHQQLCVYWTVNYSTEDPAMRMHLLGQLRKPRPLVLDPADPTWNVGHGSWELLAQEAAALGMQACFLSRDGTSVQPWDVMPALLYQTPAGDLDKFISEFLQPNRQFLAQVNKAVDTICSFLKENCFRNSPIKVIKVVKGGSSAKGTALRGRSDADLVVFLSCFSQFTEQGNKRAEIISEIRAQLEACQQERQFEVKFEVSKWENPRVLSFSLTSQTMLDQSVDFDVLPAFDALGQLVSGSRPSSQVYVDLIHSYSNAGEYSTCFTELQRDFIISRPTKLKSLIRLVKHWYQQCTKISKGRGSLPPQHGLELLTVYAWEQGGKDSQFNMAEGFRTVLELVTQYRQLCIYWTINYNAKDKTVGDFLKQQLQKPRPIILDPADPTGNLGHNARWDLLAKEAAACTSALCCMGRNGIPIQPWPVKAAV
# UniProt Q9Y4B4: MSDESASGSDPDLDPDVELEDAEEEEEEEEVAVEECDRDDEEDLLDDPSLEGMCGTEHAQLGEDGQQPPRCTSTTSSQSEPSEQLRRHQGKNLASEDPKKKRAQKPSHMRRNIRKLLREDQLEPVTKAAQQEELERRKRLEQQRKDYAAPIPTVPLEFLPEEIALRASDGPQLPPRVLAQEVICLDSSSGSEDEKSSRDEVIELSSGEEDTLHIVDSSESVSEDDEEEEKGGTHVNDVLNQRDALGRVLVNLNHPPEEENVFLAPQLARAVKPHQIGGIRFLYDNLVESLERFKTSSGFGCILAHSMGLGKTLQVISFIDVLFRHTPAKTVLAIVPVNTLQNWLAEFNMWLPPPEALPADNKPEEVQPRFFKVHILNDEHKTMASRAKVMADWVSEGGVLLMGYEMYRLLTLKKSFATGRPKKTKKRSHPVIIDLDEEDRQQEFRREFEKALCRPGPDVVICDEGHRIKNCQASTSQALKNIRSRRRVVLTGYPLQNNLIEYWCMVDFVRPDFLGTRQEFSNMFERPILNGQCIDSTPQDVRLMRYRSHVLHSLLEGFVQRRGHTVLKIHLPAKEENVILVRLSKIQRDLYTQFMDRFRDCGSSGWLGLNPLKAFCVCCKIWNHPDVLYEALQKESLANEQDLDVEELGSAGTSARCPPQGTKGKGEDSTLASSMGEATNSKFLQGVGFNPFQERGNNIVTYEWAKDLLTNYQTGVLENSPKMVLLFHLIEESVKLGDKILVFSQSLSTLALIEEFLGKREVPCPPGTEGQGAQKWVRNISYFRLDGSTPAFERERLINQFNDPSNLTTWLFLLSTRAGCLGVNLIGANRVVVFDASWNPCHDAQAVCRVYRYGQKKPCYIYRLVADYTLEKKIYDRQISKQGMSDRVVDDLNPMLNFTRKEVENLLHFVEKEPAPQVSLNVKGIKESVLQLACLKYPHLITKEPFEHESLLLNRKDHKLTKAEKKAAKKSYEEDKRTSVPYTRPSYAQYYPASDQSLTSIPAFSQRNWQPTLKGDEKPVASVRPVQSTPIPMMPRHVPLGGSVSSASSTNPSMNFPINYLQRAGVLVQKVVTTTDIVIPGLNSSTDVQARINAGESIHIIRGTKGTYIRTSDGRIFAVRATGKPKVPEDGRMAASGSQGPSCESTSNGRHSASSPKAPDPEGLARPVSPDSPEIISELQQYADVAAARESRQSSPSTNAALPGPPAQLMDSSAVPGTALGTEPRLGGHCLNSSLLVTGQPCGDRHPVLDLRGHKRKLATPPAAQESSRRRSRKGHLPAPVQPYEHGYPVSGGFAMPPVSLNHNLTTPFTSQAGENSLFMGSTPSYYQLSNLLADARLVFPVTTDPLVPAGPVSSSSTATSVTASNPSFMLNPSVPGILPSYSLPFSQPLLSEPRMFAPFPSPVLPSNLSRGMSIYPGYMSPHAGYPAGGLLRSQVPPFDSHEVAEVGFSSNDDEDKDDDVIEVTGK
# Compound: Nc1ncnc2c1ncn2[C@@H]1O[C@H](COP(=O)(O)OP(=O)(O)NP(=O)(O)O)[C@@H](O)[C@H]1O [adenylyl imidodiphosphate]
# Experiment: NP40-soluble protein abundance relative to vehicle (solubility fold change) (ratio); higher = more soluble protein in presence of AMP-PNP
# Summary of the method: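 Crude Jurkat lysate, prepared by Dounce homogenisation, was exposed to eight concentrations from 0.1 to 10 mM for 10 min at room temperature and then 3 min at 37 °C. Solubilisation used 0.8% NP40 with benzonase for 60 min at 4 °C, followed by ultracentrifugation and TMT labelling of the supernatant for LC-MS/MS. After vsn normalisation of intensities, each value is the fold change against the detergent-processed vehicle within each replicate, across three independent experiments.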
Target,NP40-soluble protein abundance (concentration: 1mM),NP40-soluble protein abundance (concentration: 2mM),NP40-soluble protein abundance (concentration: 4mM),NP40-soluble protein abundance (concentration: 6mM),NP40-soluble protein abundance (concentration: 8mM),NP40-soluble protein abundance (concentration: 10mM)
RAPGEF2 (UniProt Q9Y4G8),1 ± 0.024,1.03 ± 0.053,1.01 ± 0.025,0.9776 ± 0.00032,0.9466 ± 0.0091,0.982 ± 0.022
UniProt Q9Y6X9 and related entries,1.1 ± 0.051,1.11 ± 0.017,1.1 ± 0.017,1.09 ± 0.02,1.101 ± 0.0085,1.14 ± 0.034
YTHDF2 (UniProt Q9Y5A9),1.06 ± 0.021,1.05 ± 0.017,1.02 ± 0.042,1.03 ± 0.044,1 ± 0.043,1.03 ± 0.072
UniProt Q9Y5P4 and related entries,0.982 ± 0.019,0.98 ± 0.046,0.962 ± 0.013,0.975 ± 0.029,0.966 ± 0.021,0.9787 ± 0.0092
ENPP4 (UniProt Q9Y6X5),1.02 ± 0.019,1.08 ± 0.067,1.04 ± 0.035,1.03 ± 0.049,1.04 ± 0.059,1.03 ± 0.055
DNMT3A (UniProt Q9Y6K1),0.9995 ± 0.0041,1.02 ± 0.023,1.04 ± 0.026,1.02 ± 0.036,1.037 ± 0.0094,1.058 ± 0.0098
DYNC1LI1 (UniProt Q9Y6G9),1.03 ± 0.078,1.06 ± 0.045,0.999 ± 0.061,0.973 ± 0.1,0.968 ± 0.089,0.988 ± 0.11
LRRC42 (UniProt Q9Y546),1.03 ± 0.027,1.02 ± 0.039,0.989 ± 0.016,1.01 ± 0.051,1 ± 0.029,0.995 ± 0.045
NUBP2 (UniProt Q9Y5Y2),0.995 ± 0.014,0.948 ± 0.061,0.985 ± 0.022,1.01 ± 0.037,1.03 ± 0.018,1.03 ± 0.014
UniProt Q9Y680 and related entries,1.023 ± 0.0077,1.05 ± 0.04,0.982 ± 0.034,0.9743 ± 0.0088,0.9594 ± 0.0078,0.992 ± 0.044
UniProt Q9Y462 and related entries,1 ± 0.032,1.02 ± 0.037,1.012 ± 0.0034,1.01 ± 0.036,1.024 ± 0.0028,1.02 ± 0.013
UniProt Q9Y4E8 and related entries,0.967 ± 0.013,0.963 ± 0.032,1.02 ± 0.041,1 ± 0.048,0.993 ± 0.065,1.01 ± 0.027
RBM19 (UniProt Q9Y4C8),1.04 ± 0.024,1.12 ± 0.069,1.15 ± 0.031,1.18 ± 0.031,1.21 ± 0.033,1.3 ± 0.013
UniProt Q9Y697 and related entries,0.998 ± 0.046,0.973 ± 0.016,1.02 ± 0.026,1.05 ± 0.063,1.05 ± 0.084,1.03 ± 0.066
ZNF330 (UniProt Q9Y3S2),1.07 ± 0.032,1.05 ± 0.012,1.04 ± 0.056,1.02 ± 0.015,1.04 ± 0.05,1.02 ± 0.024
UniProt Q9Y4P8 and related entries,0.996 ± 0.064,0.958 ± 0.017,1.01 ± 0.057,1.03 ± 0.067,1.05 ± 0.067,1.02 ± 0.051
OAS3 (UniProt Q9Y6K5),1.01 ± 0.012,1.02 ± 0.04,1.02 ± 0.032,0.998 ± 0.033,1.02 ± 0.043,0.998 ± 0.018
UniProt Q9Y5Q8 and related entries,0.979 ± 0.024,0.955 ± 0.04,0.973 ± 0.029,0.927 ± 0.048,0.92 ± 0.032,0.911 ± 0.043
UniProt Q9Y4B4 and related entries,1.01 ± 0.039,1.031 ± 0.0021,1.01 ± 0.033,0.992 ± 0.024,0.953 ± 0.034,0.987 ± 0.045
UniProt Q9Y4E6 and related entries,0.924 ± 0.045,0.946 ± 0.033,0.95 ± 0.019,0.935 ± 0.016,0.931 ± 0.034,0.912 ± 0.068
HEBP2 (UniProt Q9Y5Z4),0.978 ± 0.012,0.9687 ± 0.0064,0.952 ± 0.023,0.957 ± 0.021,0.964 ± 0.018,0.926 ± 0.042
UniProt Q9Y4F3 and related entries,0.987 ± 0.038,1 ± 0.042,1 ± 0.037,0.992 ± 0.0089,1.01 ± 0.024,1.01 ± 0.02
UniProt Q9Y4B5 and related entries,1.01 ± 0.022,1 ± 0.0039,0.984 ± 0.027,0.992 ± 0.0033,1 ± 0.015,0.995 ± 0.012
UniProt Q9Y6Q9 and related entries,0.998 ± 0.015,1.06 ± 0.063,1.02 ± 0.022,0.985 ± 0.014,0.985 ± 0.024,1.02 ± 0.043
UniProt Q9Y6V0-2|Q9Y6V0-5|Q9Y6V0-6,0.88 ± 0.092,0.769 ± 0.11,0.898 ± 0.073,0.948 ± 0.12,0.944 ± 0.14,0.906 ± 0.095
UniProt Q9Y6M7-13|Q9Y6M7-6,0.984 ± 0.024,1.01 ± 0.043,0.996 ± 0.018,0.981 ± 0.033,0.958 ± 0.026,0.9794 ± 0.0076
TLN1 (UniProt Q9Y490),1 ± 0.014,1.03 ± 0.056,0.9877 ± 0.0052,0.989 ± 0.018,0.958 ± 0.013,0.987 ± 0.013
UniProt Q9Y3L5,1.03 ± 0.052,1.03 ± 0.057,1.04 ± 0.059,1.04 ± 0.033,1.01 ± 0.047,1.01 ± 0.051
UniProt Q9Y692 and related entries,0.962 ± 0.018,0.9636 ± 0.0022,0.97 ± 0.021,0.9437 ± 0.0084,0.961 ± 0.027,0.977 ± 0.0022

# 2 entries from above, as tab-separated lines.
Target	NP40-soluble protein abundance (concentration: 1mM)	NP40-soluble protein abundance (concentration: 2mM)	NP40-soluble protein abundance (concentration: 4mM)	NP40-soluble protein abundance (concentration: 6mM)	NP40-soluble protein abundance (concentration: 8mM)	NP40-soluble protein abundance (concentration: 10mM)
DNMT3A (UniProt Q9Y6K1)	0.9995 ± 0.0041	1.02 ± 0.023	1.04 ± 0.026	1.02 ± 0.036	1.037 ± 0.0094	1.058 ± 0.0098
DYNC1LI1 (UniProt Q9Y6G9)	1.03 ± 0.078	1.06 ± 0.045	0.999 ± 0.061	0.973 ± 0.1	0.968 ± 0.089	0.988 ± 0.11
